Assay results from patent US20240141294A1, “CGMP COMPLIANT PRODUCTION AND EXPANSION OF PLASMACYTOID DENDRITIC CELLS FROM HEMATOPOIETIC STEM AND PROGENITOR CELLS” (AARHUS UNIVERSITET, priority 2021, published 2024).
The source gives many values for each of these; only a part stands here.

System: HSPC-pDCs
Assay: RNA-sequencing of HSPC-pDCs generated with or without ascorbic acid
Type: cell-based, human
Conditions: Table 3
Description: HSPCs were thawed and 1×10^5 cells were seeded in DC medium with or without supplementation of ascorbic acid (AA). Following 16 days of differentiation with or without AA in the medium, pDCs were isolated by immunomagnetic depletion of non-pDCs, and HSPCs-pDCs were then primed for 72 hours with IFN-β/γ. Following priming, HSPC-pDCs were stored in RNAprotect Cell Reagent (Qiagen) at −80° C. until total RNA was extracted using the RNeasy Plus Micro Kit (Qiagen), which efficiently eliminates genomic DNA without the need for DNase treatment. The total RNA was send to BGI Europe for RNA-seq. Here, a non-stranded & polyA-selected mRNA library was prepared from the total RNA and subjected to PE100 sequencing using the BGISEQ platform. The samples generated on average about 4.84 Gb bases per sample. Low quality reads were filtered and the remaining reads were mapped to the genome with an average mapping ratio with the reference genome at 92.74%, the average gene mapping ratio at 79.90%. In total, 18,412 genes were identified. Gene expression was calculated based on the reads, differentially expressed genes and gene ontology analyses were analyzed on BGI's software analysis platform Dr. Tom. HSPCs were thawed and 1×10^5 cells were seeded in DC medium with or without supplementation of ascorbic acid (AA). Following 16 days of differentiation with or without AA in the medium, pDCs were isolated by immunomagnetic depletion of non-pDCs, and HSPCs-pDCs were then primed for 72 hours with IFN-β/γ. Following priming, HSPC-pDCs were stored in RNAprotect Cell Reagent (Qiagen) at −80 degrees until total RNA was extracted using the RNeasy Plus Micro Kit (Qiagen), which efficiently eliminates genomic DNA without the need for DNase treatment. The total RNA was send to BGI Europe for RNA-seq. Here, a non-stranded & polyA-selected mRNA library was prepared from the total RNA and subjected to PE100 sequencing using the BGISEQ platform. The samples generated on average about 4.84 Gb bases per sample. Low quality reads were filtered and the remaining reads were mapped to the genome with an average mapping ratio with the reference genome at 92.74%, the average gene mapping ratio at 79.90%. In total, 18,412 genes were identified. Gene expression was calculated based on the reads, differentially expressed genes and gene ontology analyses were analyzed on BGI's software analysis platform Dr. Tom.

With O=C1O[C@H]([C@@H](O)CO)C(O)=C1O [ascorbic acid] the “log2 (+AA/−AA)” value (gene AP2A1, Qvalue 0.96) was 0.049, the “log2 (+AA/−AA)” value (gene AP3B1, Qvalue 0.73) was −0.122 and the “log2 (+AA/−AA)” value (gene AP3B2, Qvalue 0.96) was 0.363. The “log2 (+AA/−AA)” value (gene AP3D1, Qvalue 0.20) was 0.256, the “log2 (+AA/−AA)” value (gene AP3M1, Qvalue 0.96) was −0.050 and the “log2 (+AA/−AA)” value (gene AP3M2, Qvalue 0.89) was 0.220. For the same compound, the “log2 (+AA/−AA)” value (gene AP3S1, Qvalue 0.86) was −0.090, the “log2 (+AA/−AA)” value (gene AP3S2, Qvalue 0.04) was −0.480 and the “log2 (+AA/−AA)” value (gene AP4B1, Qvalue 0.53) was −0.275. The “log2 (+AA/−AA)” value (gene AP4E1, Qvalue 0.95) was 0.089, the “log2 (+AA/−AA)” value (gene AP4M1, Qvalue 1.00) was −0.003 and the “log2 (+AA/−AA)” value (gene AP4S1, Qvalue 0.49) was −0.313. The “log2 (+AA/−AA)” value (gene BLOC1S2, Qvalue 0.94) was 0.114, the “log2 (+AA/−AA)” value (gene BST2, Qvalue 0.91) was 0.079 and the “log2 (+AA/−AA)” value (gene CHUK, Qvalue 0.95) was 0.094. For the same compound, the “log2 (+AA/−AA)” value (gene CLEC4C, Qvalue 9.44E−06) was 3.491, the “log2 (+AA/−AA)” value (gene DOCK2, Qvalue 0.71) was 0.098 and the “log2 (+AA/−AA)” value (gene FURIN, Qvalue 0.93) was 0.089. The “log2 (+AA/−AA)” value (gene HSP90B1, Qvalue 0.38) was −0.314, the “log2 (+AA/−AA)” value (gene IL3RA, Qvalue 0.75) was 0.247 and the “log2 (+AA/−AA)” value (gene IRAK1, Qvalue 0.19) was 0.214. The “log2 (+AA/−AA)” value (gene IRAK4, Qvalue 0.94) was −0.069, the “log2 (+AA/−AA)” value (gene IRF1, Qvalue 0.96) was −0.045 and the “log2 (+AA/−AA)” value (gene IRF3, Qvalue 0.91) was −0.082. For the same compound, the “log2 (+AA/−AA)” value (gene IRF5, Qvalue 0.32) was 0.232, the “log2 (+AA/−AA)” value (gene IRF7, Qvalue 3.19E−04) was 1.065 and the “log2 (+AA/−AA)” value (gene IRF8, Qvalue 1.77E−23) was 1.594. The “log2 (+AA/−AA)” value (gene IRF9, Qvalue 0.37) was 0.404, the “log2 (+AA/−AA)” value (gene LAMP5, Qvalue 1.29E−07) was 2.419 and the “log2 (+AA/−AA)” value (gene LILRA4, Qvalue 0.04) was 1.497. For the same compound, the “log2 (+AA/−AA)” value (gene MAP3K7, Qvalue 0.46) was −0.194, the “log2 (+AA/−AA)” value (gene MAPK1, Qvalue 0.90) was −0.067 and the “log2 (+AA/−AA)” value (gene MYD88, Qvalue 0.02) was 0.697. For the same compound, the “log2 (+AA/−AA)” value (gene NRP1, Qvalue 0.01) was 1.661, the “log2 (+AA/−AA)” value (gene PACSIN1, Qvalue 3.16E−03) was 3.559 and the “log2 (+AA/−AA)” value (gene PLSCR1, Qvalue 0.03) was 0.576. For the same compound, the “log2 (+AA/−AA)” value (gene RSAD2, Qvalue 0.23) was 1.967, the “log2 (+AA/−AA)” value (gene SLC15A1, Qvalue 0.95) was 1.770 and the “log2 (+AA/−AA)” value (gene SYK, Qvalue 0.82) was −0.104. For the same compound, the “log2 (+AA/−AA)” value (gene TAB1, Qvalue 0.71) was −0.152, the “log2 (+AA/−AA)” value (gene TAB2, Qvalue 0.43) was 0.208 and the “log2 (+AA/−AA)” value (gene TBK1, Qvalue 0.96) was 0.039. For the same compound, the “log2 (+AA/−AA)” value (gene TEPSIN, Qvalue 0.92) was −0.118, the “log2 (+AA/−AA)” value (gene TLR3, Qvalue 0.28) was 1.507 and the “log2 (+AA/−AA)” value (gene TLR7, Qvalue 1.1E−20) was 2.326. The “log2 (+AA/−AA)” value (gene TLR8, Qvalue 5.99E−07) was 1.584, the “log2 (+AA/−AA)” value (gene TLR9, Qvalue 1.70E−07) was 2.487 and the “log2 (+AA/−AA)” value (gene TRAF3, Qvalue 0.01) was 0.547. For the same compound, the “log2 (+AA/−AA)” value (gene TRAF6, Qvalue 1.00) was 0.008, the “log2 (+AA/−AA)” value (gene TYROBP, Qvalue 0.17) was 0.475 and the “log2 (+AA/−AA)” value (gene UBE2N, Qvalue 0.03) was −0.327. For the same compound, the “log2 (+AA/−AA)” value (gene UBE2V1, Qvalue 0.77) was −0.100 and the “log2 (+AA/−AA)” value (gene UNC93B1, Qvalue 0.04) was 0.649.
